# No constants are given. Whether binding was seen depends on the method and setting. Binding seen in cells or lysates may run through a third protein. Some entries that bind do so weakly or less than the wild type.
# By UniProt entry, the sequences of proteins in these tests, tags left out.
# UniProt Q13464: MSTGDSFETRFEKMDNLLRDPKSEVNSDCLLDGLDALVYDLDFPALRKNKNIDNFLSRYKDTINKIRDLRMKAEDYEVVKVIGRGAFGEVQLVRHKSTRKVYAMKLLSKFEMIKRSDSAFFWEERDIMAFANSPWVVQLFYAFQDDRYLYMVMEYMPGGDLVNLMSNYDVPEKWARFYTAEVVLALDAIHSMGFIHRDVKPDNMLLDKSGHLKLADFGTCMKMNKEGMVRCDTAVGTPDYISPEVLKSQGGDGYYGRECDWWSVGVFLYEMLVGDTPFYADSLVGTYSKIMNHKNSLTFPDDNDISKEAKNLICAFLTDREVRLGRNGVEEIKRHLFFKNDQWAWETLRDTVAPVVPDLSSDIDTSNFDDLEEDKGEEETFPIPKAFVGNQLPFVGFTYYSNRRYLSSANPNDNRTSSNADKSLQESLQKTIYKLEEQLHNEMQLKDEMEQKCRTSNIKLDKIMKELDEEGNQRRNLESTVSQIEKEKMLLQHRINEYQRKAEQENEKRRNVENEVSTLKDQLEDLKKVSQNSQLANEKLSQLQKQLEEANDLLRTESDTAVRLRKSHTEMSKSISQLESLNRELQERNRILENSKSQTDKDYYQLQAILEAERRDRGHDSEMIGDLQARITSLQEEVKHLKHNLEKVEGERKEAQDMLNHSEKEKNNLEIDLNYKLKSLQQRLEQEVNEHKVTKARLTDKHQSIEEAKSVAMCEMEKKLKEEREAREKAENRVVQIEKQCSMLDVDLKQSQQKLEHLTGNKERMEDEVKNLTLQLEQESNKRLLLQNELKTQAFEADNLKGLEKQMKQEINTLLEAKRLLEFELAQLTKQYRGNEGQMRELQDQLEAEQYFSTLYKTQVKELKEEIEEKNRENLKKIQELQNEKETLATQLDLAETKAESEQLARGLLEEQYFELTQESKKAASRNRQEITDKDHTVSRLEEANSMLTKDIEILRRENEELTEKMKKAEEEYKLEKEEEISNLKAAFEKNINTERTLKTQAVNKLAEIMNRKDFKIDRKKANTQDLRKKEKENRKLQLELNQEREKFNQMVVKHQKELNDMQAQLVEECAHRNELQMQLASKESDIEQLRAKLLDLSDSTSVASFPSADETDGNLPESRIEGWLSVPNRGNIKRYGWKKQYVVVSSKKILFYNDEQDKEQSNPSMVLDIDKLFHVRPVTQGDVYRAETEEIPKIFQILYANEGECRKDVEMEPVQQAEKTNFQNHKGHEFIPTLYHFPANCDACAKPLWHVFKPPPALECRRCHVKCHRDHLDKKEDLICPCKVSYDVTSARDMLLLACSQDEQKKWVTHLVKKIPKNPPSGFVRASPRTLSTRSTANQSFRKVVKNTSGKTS
# UniProt P26038: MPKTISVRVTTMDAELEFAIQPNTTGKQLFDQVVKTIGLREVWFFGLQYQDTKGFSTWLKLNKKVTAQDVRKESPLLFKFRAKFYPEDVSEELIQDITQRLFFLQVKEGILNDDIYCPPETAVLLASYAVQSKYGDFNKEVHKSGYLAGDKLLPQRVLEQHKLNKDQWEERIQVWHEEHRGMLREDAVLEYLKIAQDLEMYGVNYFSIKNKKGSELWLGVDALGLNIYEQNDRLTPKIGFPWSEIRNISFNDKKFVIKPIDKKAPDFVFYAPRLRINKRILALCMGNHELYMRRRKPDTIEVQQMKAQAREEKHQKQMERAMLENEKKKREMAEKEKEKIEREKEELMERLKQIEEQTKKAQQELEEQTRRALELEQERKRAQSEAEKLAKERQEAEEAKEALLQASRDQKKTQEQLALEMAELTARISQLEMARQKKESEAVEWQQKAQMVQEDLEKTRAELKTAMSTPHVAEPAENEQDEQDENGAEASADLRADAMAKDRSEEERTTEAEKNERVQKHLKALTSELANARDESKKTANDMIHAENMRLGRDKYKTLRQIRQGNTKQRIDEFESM
# Target: Rock1 (human (endogenous in HMECs)) (UniProt Q13464)
# Experiment: co-IP; HMEC lysates (modified RIPA buffer with protease and phosphatase inhibitors), immunoprecipitation with antibodies to Rock1, protein G beads, Western blot; cells treated with or without LPS (24 h)
substance,measurement,value
phosphorylated moesin (p-MSN) (from UniProt P26038 1-577),binding,binds

# From article PMC7896848
